According to article PMC10958935:
These are yes or no findings as the source states them, for the method shown. In cells and extracts the contact can be indirect. Some binding calls cover weakened binding; strength is not graded here.

Amino acid sequences for entries named in this document (tags omitted).
UniProt P67809: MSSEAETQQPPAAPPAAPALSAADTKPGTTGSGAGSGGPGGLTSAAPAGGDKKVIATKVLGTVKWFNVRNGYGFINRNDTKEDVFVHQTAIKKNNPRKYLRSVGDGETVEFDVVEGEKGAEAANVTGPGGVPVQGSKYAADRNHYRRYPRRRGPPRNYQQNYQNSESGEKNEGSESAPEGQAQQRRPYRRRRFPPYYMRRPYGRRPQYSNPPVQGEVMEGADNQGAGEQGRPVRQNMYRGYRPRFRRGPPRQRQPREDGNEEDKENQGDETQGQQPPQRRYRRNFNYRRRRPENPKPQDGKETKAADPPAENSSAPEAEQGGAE
UniProt Q00532: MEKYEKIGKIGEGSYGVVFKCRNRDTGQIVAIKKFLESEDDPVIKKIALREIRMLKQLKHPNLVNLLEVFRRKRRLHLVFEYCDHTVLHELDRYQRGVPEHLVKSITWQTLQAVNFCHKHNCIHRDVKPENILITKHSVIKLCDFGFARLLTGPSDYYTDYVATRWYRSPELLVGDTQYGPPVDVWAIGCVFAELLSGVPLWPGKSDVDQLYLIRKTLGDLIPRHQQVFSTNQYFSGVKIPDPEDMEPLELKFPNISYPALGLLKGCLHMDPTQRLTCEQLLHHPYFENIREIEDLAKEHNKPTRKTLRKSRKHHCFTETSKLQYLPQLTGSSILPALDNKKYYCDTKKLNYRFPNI

How the values were obtained:
[1] = biological target: Endogenous YBX1 (Y box binding protein 1) of A549 and H1299 cells (human (endogenous in A549 and H1299)) (UniProt P67809); assay: co-IP; endogenous proteins, H1299 cell extracts incubated with protein A/G agarose and IgG or YBX1 antibody; five washes with NETN buffer; western blotting
[2] = biological target: Exogenous CDKL1 expressed in A549 and H1299 cells (UniProt Q00532); assay: co-IP; exogenous CDKL1 expressed in A549 and H1299 cells; endogenous YBX1 detected
[3] = biological target: SFB-YBX1 (Y box binding protein 1), expressed in HEK293T cells (UniProt P67809); assay: co-IP; Flag-tag and Myc-tag plasmids introduced into HEK293T cells; cell extracts incubated with streptavidin (S) beads overnight at 4 °C; five washes with NETN buffer; western blotting
[4] = biological target: SFB-CDKL1 (cyclin-dependent kinase-like 1), exogenously expressed in HEK293T cells (UniProt Q00532); assay: as above
[5] = biological target: GST-CDKL1 fusion protein (UniProt Q00532); assay: pull-down; GST-only or GST-CDKL1 purified from E. coli incubated overnight with GST beads and proteins extracted from HEK293T cells transfected with SFB-YBX1; five washes; immunoblotting; only the target purified

**Q.** For “Endogenous CDKL1 (cyclin-dependent kinase-like 1) of H1299 cells (from UniProt Q00532 1-357)”, which binding [1] is on record?
**A.** The binding was “binds”.

**Q.** How did the binding [2] turn out when “Endogenous YBX1 (Y box binding protein 1) of A549 and H1299 cells (from UniProt P67809 1-324)” was run?
**A.** Its binding is “binds”.

**Q.** “Myc-tagged CDKL1 (cyclin-dependent kinase-like 1), exogenously expressed in HEK293T cells (from UniProt Q00532 1-357)” was tested. Which binding [3] did it give?
**A.** Its binding is “binds”.

**Q.** For “Myc-tagged YBX1 (Y box binding protein 1), exogenously expressed in HEK293T cells (from UniProt P67809 1-324)”, which binding [4] is on record?
**A.** Its binding is “binds”.

**Q.** Which binding [5] does the source give for “SFB-YBX1 (Y box binding protein 1), expressed in HEK293T cells (from UniProt P67809 1-324)” here?
**A.** The binding was “binds”.
